Assay in all cases: DAPPL (digital affinity profiling via proximity ligation, sequencing)
Holding throughout (conditions): 10 mM Tris-HCl pH 7.5, 50 mM NaCl, 1 mM DTT, 4% glycerol, room temperature, 30 min; GST-TFs on glutathione beads, 16-mer random dsDNA library, 0.1% …; high values mean tight binding; double strand, one strand shown; scale: fold enrichment (6-mer frequency, TF over GST control)

In one experiment the target is T1, ELK1 (UniProt P19419).
T1 sequence: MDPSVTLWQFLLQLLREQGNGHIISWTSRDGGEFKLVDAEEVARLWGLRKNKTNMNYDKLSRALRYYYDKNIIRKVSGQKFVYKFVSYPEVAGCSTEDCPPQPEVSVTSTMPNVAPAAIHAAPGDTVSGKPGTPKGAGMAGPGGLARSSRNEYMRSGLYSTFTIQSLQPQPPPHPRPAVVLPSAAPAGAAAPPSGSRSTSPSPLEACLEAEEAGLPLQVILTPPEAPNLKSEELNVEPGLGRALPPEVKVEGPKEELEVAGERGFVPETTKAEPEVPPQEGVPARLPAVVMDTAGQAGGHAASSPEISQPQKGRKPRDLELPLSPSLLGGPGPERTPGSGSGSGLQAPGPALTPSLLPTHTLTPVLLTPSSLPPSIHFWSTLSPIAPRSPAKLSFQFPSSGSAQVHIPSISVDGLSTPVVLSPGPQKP

The target in another experiment is T2, ELK3 (UniProt P41970).
T2 sequence: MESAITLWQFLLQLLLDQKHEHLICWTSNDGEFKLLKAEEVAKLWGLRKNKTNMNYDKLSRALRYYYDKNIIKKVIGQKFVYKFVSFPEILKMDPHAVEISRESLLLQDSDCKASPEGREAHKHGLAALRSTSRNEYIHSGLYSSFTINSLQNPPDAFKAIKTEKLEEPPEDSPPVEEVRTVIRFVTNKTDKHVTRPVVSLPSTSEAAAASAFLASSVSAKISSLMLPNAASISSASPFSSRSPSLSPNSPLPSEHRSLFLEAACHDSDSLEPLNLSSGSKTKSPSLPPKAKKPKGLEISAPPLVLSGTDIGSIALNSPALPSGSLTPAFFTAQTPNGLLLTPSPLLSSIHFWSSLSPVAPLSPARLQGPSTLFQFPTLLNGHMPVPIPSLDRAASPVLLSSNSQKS

The target of another experiment is T3, SPIC (UniProt Q8N5J4).
T3 sequence: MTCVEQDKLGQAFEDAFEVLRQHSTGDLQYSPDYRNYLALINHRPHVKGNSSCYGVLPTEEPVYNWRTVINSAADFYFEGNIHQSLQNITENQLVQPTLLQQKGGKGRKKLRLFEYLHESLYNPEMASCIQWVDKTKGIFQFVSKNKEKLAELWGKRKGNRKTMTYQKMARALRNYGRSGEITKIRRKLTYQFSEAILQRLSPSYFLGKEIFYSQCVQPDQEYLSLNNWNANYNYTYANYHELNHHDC

A further experiment concerns the target T4, ETS2 (UniProt P15036).
T4 sequence: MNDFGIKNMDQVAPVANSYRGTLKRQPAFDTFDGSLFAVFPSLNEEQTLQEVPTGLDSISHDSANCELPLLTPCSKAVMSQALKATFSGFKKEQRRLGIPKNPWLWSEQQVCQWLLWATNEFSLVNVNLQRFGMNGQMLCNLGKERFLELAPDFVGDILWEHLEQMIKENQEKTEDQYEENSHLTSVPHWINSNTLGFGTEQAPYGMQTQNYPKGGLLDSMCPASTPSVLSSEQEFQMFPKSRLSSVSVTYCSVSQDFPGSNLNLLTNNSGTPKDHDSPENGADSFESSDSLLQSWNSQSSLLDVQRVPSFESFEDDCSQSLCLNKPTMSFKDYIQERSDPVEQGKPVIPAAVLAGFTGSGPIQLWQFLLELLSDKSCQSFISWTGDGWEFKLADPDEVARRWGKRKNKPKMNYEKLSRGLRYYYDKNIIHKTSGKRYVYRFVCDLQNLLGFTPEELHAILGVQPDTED

The next experiment concerns the target T5, ETV3 (UniProt P41162-2).
T5 sequence: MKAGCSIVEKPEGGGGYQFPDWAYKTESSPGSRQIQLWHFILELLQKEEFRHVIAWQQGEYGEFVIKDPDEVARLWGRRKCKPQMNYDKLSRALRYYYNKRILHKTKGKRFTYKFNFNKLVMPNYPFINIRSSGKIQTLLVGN

Only a part is listed here, and it is no random draw. At the low end of the ranking the order means little.

In the case of GAAACC, the binding signal with ELK1 was found to be 0.986; in the experiment with ELK3, 0.984; with SPIC it was 0.973; with ETS2, 0.981.

As for CGAATG, the binding signal with ELK1 stood at 0.913; with SPIC it was 0.915; with ETV3, 0.976.

As to CCAATT, the binding signal in the experiment with ELK1 came to 1.24; with ELK3, 1.18; with SPIC, 1.31.

Turning to TTTAGT, the binding signal with ELK1 was 0.972; in the experiment with ELK3 it was 1.11; with SPIC, 1.15.

As to GTAACC, the values for the binding signal with ELK1, with ELK3 and with SPIC were 0.991, 1.04 and 0.983, respectively.

On to CACACA, for which the results for the binding signal in the experiment with ELK1, in the experiment with ELK3 and with SPIC were 1.08, 1.2 and 1.07, respectively.

Consider TTACGC, for which the binding signal with ELK1 is 1.06; with ELK3 it was 1.21; with SPIC it was 0.981.

Regarding TTCGCG, the results for the binding signal in the experiment with ELK1, in the experiment with ELK3 and with SPIC were 1.07, 1.15 and 1.16, respectively.

In the case of CGCCAA, the binding signal came out at 1.02 in the experiment with ELK1, 1.06 with ELK3 and 1.11 with SPIC.

On to ATGCAG, for which the binding signal worked out at 1.04 in the experiment with ELK1, 0.953 in the experiment with ELK3 and 0.996 with SPIC.

TCAAGC: the binding signal in the experiment with ELK1 was found to be 0.965; with ELK3, 1.09; with SPIC it was 0.962.

As for AACACG, the binding signal in the experiment with ELK1 was determined as 1.23; with ELK3 it was 1.16; with SPIC it was 1.33.

With CTTGAA, the binding signal with ELK1 amounted to 1.24; with ELK3, 0.994; in the experiment with SPIC, 1.09.

Regarding AACTGA, the results for the binding signal with SPIC and with ETS2 were 1.37 and 1.16, respectively.

Turning to GGCTAT, the binding signal with ELK1 was 1.06; with ELK3, 0.969; in the experiment with SPIC, 1.03.

Turning to CCCCGT, the figures for the binding signal in the experiment with SPIC and in the experiment with ETS2 were 1.05 and 0.994, respectively.

On to CCGGTC, for which the figures for the binding signal with ELK1, in the experiment with ELK3 and with SPIC were 1.18, 1.18 and 1.01, respectively.

With CCGAAA, the binding signal is 1.23 with ELK1, 0.997 in the experiment with ELK3 and 1.31 with SPIC.

Regarding CTTTCG, the binding signal was 0.966 with SPIC and 1.32 with ETS2.

Turning to AAGTGT, the binding signal with ELK1 was determined as 1.29; with ELK3 it was 1.37; with SPIC, 1.6.

In the case of ACCGCC, the figures for the binding signal with SPIC and with ETS2 were 1.16 and 1.24, respectively.

For CGCGGC, the binding signal came to 0.855 with SPIC and 0.951 in the experiment with ETS2.

Regarding TTTACC, the values for the binding signal in the experiment with ELK1, with ELK3 and with SPIC were 1.2, 1.37 and 1.17, respectively.

As to TGCAAG, the results for the binding signal in the experiment with ELK1, with ELK3 and in the experiment with SPIC were 1.11, 0.92 and 0.936, respectively.

On to CGTTTA, for which the figures for the binding signal with ELK1, with ELK3 and with SPIC were 1.08, 1.12 and 1.03, respectively.

In the case of ATTAGT, the binding signal with ELK1 came out at 0.977; with ELK3 it was 0.933; with SPIC, 0.954.

Consider GAATTG, for which the binding signal in the experiment with ELK1 worked out at 1.12; with ELK3, 1.21; with SPIC, 0.932.

Regarding CAGCTC, the values for the binding signal with ELK1, in the experiment with ELK3 and in the experiment with SPIC were 0.935, 0.992 and 1.06, respectively.

In the case of TTACTA, the binding signal was determined as 1.31 in the experiment with ELK1, 1.31 with ELK3 and 1.38 in the experiment with SPIC.

For the sequence CCAACA, the binding signal came out at 1.01 with SPIC and 1.03 in the experiment with ETS2.

On to AGGATG, for which the figures for the binding signal with ELK1, with ELK3 and with SPIC were 0.964, 0.895 and 0.918, respectively.

With GGACTT, the binding signal is 0.996 with SPIC and 1.13 in the experiment with ETS2.

Consider GCCCTC, for which the results for the binding signal with SPIC and with ETS2 were 1.26 and 1.24, respectively.

In the case of ATGCTG, the binding signal turned out to be 0.961 with ELK1, 0.923 with ELK3 and 1.14 in the experiment with SPIC.

On to TGTCAC, for which the binding signal amounted to 1.11 with ELK1, 1.2 with ELK3 and 1.31 in the experiment with SPIC.

For the sequence CCGAAC, the results for the binding signal with ELK1, with ELK3 and in the experiment with SPIC were 1.21, 1.33 and 1.32, respectively.

With CTGAAA, the results for the binding signal in the experiment with ELK1, in the experiment with ELK3 and in the experiment with SPIC were 1.14, 1.03 and 1.35, respectively.

Consider TATAGA, for which the binding signal with SPIC and with ETS2 was 1.04 each time.

For the sequence TCCATA, the binding signal in the experiment with ELK1 is 1.3; with ELK3 it was 1.35; with SPIC, 1.3; with ETV3 it was 1.22.

As to TGCCAT, the binding signal amounted to 1.06 with ELK1, 1.12 in the experiment with ELK3 and 1.12 with SPIC.

On to TCGTTT, for which the binding signal stood at 1.15 with SPIC and 1.28 in the experiment with ETS2.

On to TTGTCA, for which the binding signal with SPIC stood at 0.982; with ETS2, 1.11.

With CAGGAA, the binding signal amounted to 1.65 with SPIC and 1.75 in the experiment with ETS2.

Consider TCCCGG, for which the binding signal with SPIC stood at 2.35; in the experiment with ETS2, 2.34.

Regarding TGTGCG, the results for the binding signal with SPIC and in the experiment with ETS2 were 0.938 and 1.05, respectively.

For ACTGTT, the binding signal came out at 0.964 with SPIC and 1.13 with ETS2.

In the case of GCAATT, the binding signal in the experiment with SPIC is 0.935; with ETS2, 1.09.

As to CTGGCT, the binding signal with SPIC amounted to 1.13; in the experiment with ETS2 it was 1.19.

Turning to AGCGCC, the binding signal stood at 0.971 in the experiment with SPIC and 1.06 in the experiment with ETS2.

Take ATATTG: the results for the binding signal in the experiment with SPIC and in the experiment with ETS2 were 1.41 and 1.36, respectively.

These data come from PMC7862700.
